Percent effect of library compounds

Protein sequences, listed by entry. Tags and fused reporters are not part of them. Residues count along the entry.
UniProt I6X8D2, whole entry: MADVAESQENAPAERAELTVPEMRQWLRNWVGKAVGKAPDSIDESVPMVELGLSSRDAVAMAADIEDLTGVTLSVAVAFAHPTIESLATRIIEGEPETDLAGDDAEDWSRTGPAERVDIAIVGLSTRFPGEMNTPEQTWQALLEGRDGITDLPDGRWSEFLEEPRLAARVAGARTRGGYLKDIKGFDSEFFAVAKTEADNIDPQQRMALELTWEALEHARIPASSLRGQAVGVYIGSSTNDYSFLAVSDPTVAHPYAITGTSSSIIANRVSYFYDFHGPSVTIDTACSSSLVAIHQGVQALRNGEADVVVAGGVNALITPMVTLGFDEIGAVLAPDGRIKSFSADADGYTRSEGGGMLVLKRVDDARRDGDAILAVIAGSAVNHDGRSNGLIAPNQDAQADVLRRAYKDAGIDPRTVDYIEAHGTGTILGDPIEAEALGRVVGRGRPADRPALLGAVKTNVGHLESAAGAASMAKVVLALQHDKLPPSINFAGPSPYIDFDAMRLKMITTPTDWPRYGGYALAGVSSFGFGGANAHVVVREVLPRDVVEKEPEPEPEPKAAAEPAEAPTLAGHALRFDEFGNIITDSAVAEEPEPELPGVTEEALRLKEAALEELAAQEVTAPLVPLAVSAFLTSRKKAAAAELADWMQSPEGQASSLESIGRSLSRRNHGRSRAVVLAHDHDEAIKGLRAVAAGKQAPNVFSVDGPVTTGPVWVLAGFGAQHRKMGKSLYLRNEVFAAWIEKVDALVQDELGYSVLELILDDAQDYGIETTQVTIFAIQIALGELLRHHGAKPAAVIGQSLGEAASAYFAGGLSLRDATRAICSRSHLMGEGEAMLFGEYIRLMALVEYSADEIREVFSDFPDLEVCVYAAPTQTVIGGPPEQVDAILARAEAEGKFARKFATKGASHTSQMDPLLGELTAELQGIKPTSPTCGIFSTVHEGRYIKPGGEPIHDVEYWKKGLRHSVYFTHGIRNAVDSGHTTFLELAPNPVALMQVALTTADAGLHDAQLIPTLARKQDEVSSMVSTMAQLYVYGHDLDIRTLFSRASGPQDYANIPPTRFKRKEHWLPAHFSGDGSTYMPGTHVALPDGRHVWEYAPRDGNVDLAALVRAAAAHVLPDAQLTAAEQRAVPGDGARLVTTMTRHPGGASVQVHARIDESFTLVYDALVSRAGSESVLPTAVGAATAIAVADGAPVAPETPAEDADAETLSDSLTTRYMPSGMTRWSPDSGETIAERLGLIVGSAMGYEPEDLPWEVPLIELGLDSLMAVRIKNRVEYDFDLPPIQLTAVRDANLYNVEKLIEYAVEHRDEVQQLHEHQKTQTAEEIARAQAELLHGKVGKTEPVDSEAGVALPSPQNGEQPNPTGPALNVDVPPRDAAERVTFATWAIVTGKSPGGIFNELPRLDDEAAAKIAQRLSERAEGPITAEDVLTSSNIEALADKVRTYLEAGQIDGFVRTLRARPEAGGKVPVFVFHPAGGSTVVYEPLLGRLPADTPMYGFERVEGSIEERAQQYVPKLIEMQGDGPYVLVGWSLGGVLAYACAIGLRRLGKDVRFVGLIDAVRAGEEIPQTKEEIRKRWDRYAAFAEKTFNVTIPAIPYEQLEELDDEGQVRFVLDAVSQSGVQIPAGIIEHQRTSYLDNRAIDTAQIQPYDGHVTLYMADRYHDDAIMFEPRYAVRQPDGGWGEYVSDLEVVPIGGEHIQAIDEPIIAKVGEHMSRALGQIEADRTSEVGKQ
UniProt A4I591, 1-473: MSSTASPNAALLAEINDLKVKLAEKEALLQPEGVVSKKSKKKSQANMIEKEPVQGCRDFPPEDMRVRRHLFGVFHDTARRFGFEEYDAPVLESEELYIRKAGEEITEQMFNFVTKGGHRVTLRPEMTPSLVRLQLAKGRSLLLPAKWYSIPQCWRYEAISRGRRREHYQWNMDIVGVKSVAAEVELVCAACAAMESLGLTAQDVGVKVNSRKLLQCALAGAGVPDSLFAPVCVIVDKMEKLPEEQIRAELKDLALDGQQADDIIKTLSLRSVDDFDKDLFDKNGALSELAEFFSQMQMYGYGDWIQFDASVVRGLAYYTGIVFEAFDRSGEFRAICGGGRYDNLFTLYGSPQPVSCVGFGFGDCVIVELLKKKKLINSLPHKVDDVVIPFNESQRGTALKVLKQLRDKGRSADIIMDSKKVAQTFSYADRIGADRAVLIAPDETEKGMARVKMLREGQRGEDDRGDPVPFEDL

From ChEMBL document CHEMBL3988442, “University of Dundee, Small-Polar-MMV Screening Library” (2021).

Pks13 thioesterase: 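Enzyme assay of the thioesterase domain of polyketide synthase 13; the read-out is not stated. Target: Polyketide synthase Pks13, Mycobacterium tuberculosis (UniProt I6X8D2). Concentration: 30 µM. Higher reads as stronger inhibition (inferred from which compounds were picked for retests). Size under these conditions: about 67,000 compounds, about 300 of them at 50% or above in at least one test.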
LiHisRS: 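Enzyme assay of histidyl-tRNA synthetase; the read-out is not stated. Target: Histidine-tRNA ligase, Leishmania infantum (UniProt A4I591). Compounds at 30 µM. Direction is inferred from retests: higher values go with stronger inhibition. The assay is labelled LdHisRS but filed under L. infantum. Of about 69,000 compounds tested this way, about 410 (0.6%) reached 50% or more in at least one test.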

The filed quantity is “Percent Effect” (%). How 0% and 100% were set is not recorded. Most values in the screen are low, and negative values occur. The compounds are a random part of those screened.

compound: Cc1ccc(CNC(=O)CCNS(C)(=O)=O)cc1
Pks13 thioesterase: -12.18
LiHisRS: 9.565

compound: CCCNC(=O)CNc1cc(C#N)ccc1OCC
Pks13 thioesterase: -25.08
LiHisRS: 16.85

compound: CC(C)c1nc(C(=O)N2CCCC(n3cncn3)C2)c[nH]1 (centres unmarked)
Pks13 thioesterase: -7.711
LiHisRS: 21.62

compound: CCC1CN(Cc2nc(C(C)C)no2)CCC(=O)N1Cc1ccccc1 (centres unmarked)
Pks13 thioesterase: -2.723
LiHisRS: 9.917

compound: CCn1ccc(NC(=O)C2CCC(=O)N2Cc2ccc(C)o2)n1 (centres unmarked)
Pks13 thioesterase: -15.15
LiHisRS: 6.452

compound: Cc1nnc2n1CCN(Cc1csc(-c3ccsc3)n1)C2
Pks13 thioesterase: -6.88
LiHisRS: 8.929

compound: Cc1nc(CN2CCCn3cnc(COC(C)C)c3C2)cs1
Pks13 thioesterase: -1.727
LiHisRS: 14.71

compound: Cc1n[nH]c(C)c1-c1c(C#N)c(N)nc2c1CCc1[nH]ccc1-2
Pks13 thioesterase: -7.087
LiHisRS: 107.7

compound: CC(C)NC(=O)CN(C)CC(=O)/N=c1/cc[nH]n1C(C)C1CC1 (centres unmarked)
Pks13 thioesterase: -8.394
LiHisRS: 4.444

compound: CN(C)S(=O)(=O)N1CCN(c2cc(-n3cccc3)ncn2)CC1
Pks13 thioesterase: -10.33
LiHisRS: 12.9

compound: Cc1cccc(CN2CCN(C(=O)c3cccnc3O)CC2)c1
Pks13 thioesterase: -14.7
LiHisRS: 13.7

compound: CC(C)CCc1noc(C[S+]([O-])CC(=O)NCc2ccccc2)n1 (centres unmarked)
Pks13 thioesterase: -23.68
LiHisRS: 2.073

compound: Cc1ccc(-c2nc(CNCC3CN(C)CCO3)cs2)o1 (centres unmarked)
Pks13 thioesterase: -28
LiHisRS: 34.38

compound: Fc1ccc2[nH]c(C3CCCN3Cc3c[nH]cn3)nc2c1 (centres unmarked)
Pks13 thioesterase: 7.515
LiHisRS: 20.8

compound: c1ccc(OCc2nnc3n2CCN(CC2CCOCC2)C3)nc1
Pks13 thioesterase: -14.9
LiHisRS: 1.961

compound: O=C(CCCOc1ccccc1)N1CCCC(n2cncn2)C1 (centres unmarked)
Pks13 thioesterase: -21.77
LiHisRS: 6.481

compound: O=C(CCc1nc(-c2ccccn2)no1)N1CCCC1c1ccsc1 (centres unmarked)
Pks13 thioesterase: -22.14
LiHisRS: 16.95

compound: COc1ccc(CC(=O)N2CCC3(CC2)CCN(CC(C)C)C3=O)cc1
Pks13 thioesterase: -24.47
LiHisRS: -42.31

compound: CC1(C)CC(=O)c2cnc3nc(N4CCCC4)[nH]c(=O)c3c2C1
Pks13 thioesterase: 0.1902
LiHisRS: 7.692

compound: NS(=O)(=O)c1ccc(F)c(C(=O)NCCSc2ccccn2)c1
Pks13 thioesterase: -34.89
LiHisRS: 7.853

compound: CCC(CC)(CNC(=O)c1cccn1Cc1cccnc1)N(C)C
Pks13 thioesterase: 0.09815
LiHisRS: 10.53

compound: Cc1nc(CN2CCCC(N(C)Cc3nc(CC(C)C)no3)C2)no1 (centres unmarked)
Pks13 thioesterase: -5.096
LiHisRS: 3.306

compound: Cc1cc(CN2CCN(Cc3ccc(C#N)cc3F)CC2)no1
Pks13 thioesterase: -8.043
LiHisRS: 12.64